The other results are listed elsewhere or left out. Shown are side measurements of this screen, not its main read-out; they come without a call. Compounds called inactive in the main read-out are mostly missing here. Potencies come from curve fits of mixed quality, noted in brackets.
Test: qHTS Assay for Lipid Storage Modulators in Drosophila S3 Cells;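 on cell number change: cells counted by Cell Tracker Red CMTPX staining in the red channel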
Settings: BODIPY lipid droplet fluorescence, 18-24 h; for cell number change: measured here: cell count max response, cells fed with added oleic acid
Outline: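 Drosophila S3 cells got compounds at several concentrations plus oleic acid (400 uM solution). Laser-scanning cytometry with 488 nm excitation read lipid droplets at 500-530 nm and cells at 575-640 nm. Percent activity was relative to 20 uM Triacsin C.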

[1] = measured here: cell number channel AC50, cells fed with added oleic acid
[2] = measured here: lipid fluorescence (Fed channel) AC50, cells fed with added oleic acid

SMILES	cell number change [%]	AC50 [1]	AC50 [2]
CCOc1cccc(NC(=O)c2ccc(S(=O)(=O)N3CCCC3)cc2)c1	-34.8	29.1 µM [falling, single point]	
CCN(CC)S(=O)(=O)c1ccc(OC)c(NC(=O)c2ccc(-n3cncn3)c([N+](=O)[O-])c2)c1	41.8	4.11 µM [rising, full curve]	
COc1cccc(C(=O)NCCSc2c(C)[nH]c3ccccc23)c1OC	-39.4		20.6 µM [falling, single point]
Cc1cccc(NC(=O)c2cc([N+](=O)[O-])ccc2NCC2CCCO2)n1 (configuration not stated)	33.1	7.31 µM [rising, partial curve, poor fit]	
COc1ccc(C(=O)Nc2c(C)cc(C)cc2C)cc1OC	17.5		
CC(C)Oc1ccc(S(=O)(=O)N2CCOCC2)cc1NC(=O)CC1CCCC1	-9.33		0.092 µM [rising, full curve, poor fit]
CCN1CCCC1CNC(=O)c1[nH]c2ccc(OC)cc2c1C (configuration not stated)	10.8		29.1 µM [rising, single point]
O=C(O)c1cccc(S(=O)(=O)Nc2ccccc2-c2ccccc2)c1	-42.4	6.51 µM [falling, single point]	4.11 µM [falling, single point]
CCOC(=O)C(Nc1ccc2ccccc2c1)C(=O)OCC	-65.5	29.1 µM [falling, single point]	25.9 µM [falling, partial curve]
O=C(NCc1nc2ccccc2[nH]1)c1ccc(S(=O)(=O)N2CCOCC2)cc1	4.61		
Cc1nc(-c2ccc(F)cc2)c(CC(=O)N(C)CC(=O)Nc2ccccc2C(F)(F)F)s1		0.92 µM [rising, full curve, poor fit]	7.31 µM [rising, partial curve, poor fit]
Cc1cc(NC(=O)COC(=O)c2c(C)noc2C)ccc1Br		6.51 µM [rising, single point]	6.51 µM [rising, single point]
CC(=O)NC(=S)Nc1ccc(NC(=S)NC(=O)c2ccc([N+](=O)[O-])cc2)cc1	30.3	2.91 µM [rising, partial curve]	
COc1cccc(-n2c(Cc3cc(=O)[nH]c(=O)[nH]3)nnc2SCC(=O)N2CCCCCC2)c1	25.1		6.51 µM [rising, single point]
COc1ccc(CCNC(=O)Cc2nn(C)c(=O)c3ccccc23)cc1OC			6.51 µM [rising, single point]
COc1ccc(C(=O)NCCS(=O)(=O)NCc2cccs2)cc1	2.89		0.00461 µM [falling, full curve, poor fit]
CCC(C)(C)n1nnnc1C(c1ccccc1OC)N1CCN(C(=O)c2ccco2)CC1 (configuration not stated)	23.4		
COC(=O)c1ccc(SCC(=O)N2CCC(C)CC2)c([N+](=O)[O-])c1	3.77		14.6 µM [rising, single point]
CCOc1cccc(-c2c(C(=O)N/N=C/c3sccc3C)nnn2-c2nonc2N)c1	-12.4	3.66 µM [falling, single point]	

Some of the entries so far, field by field.
CCN(CC)S(=O)(=O)c1ccc(OC)c(NC(=O)c2ccc(-n3cncn3)c([N+](=O)[O-])c2)c1
  cell number change [%]: 41.8
  AC50 [1]: 4.11 µM [rising, full curve]
COc1cccc(C(=O)NCCSc2c(C)[nH]c3ccccc23)c1OC
  cell number change [%]: -39.4
  AC50 [2]: 20.6 µM [falling, single point]
Cc1cccc(NC(=O)c2cc([N+](=O)[O-])ccc2NCC2CCCO2)n1 (configuration not stated)
  cell number change [%]: 33.1
  AC50 [1]: 7.31 µM [rising, partial curve, poor fit]
COc1ccc(C(=O)Nc2c(C)cc(C)cc2C)cc1OC
  cell number change [%]: 17.5

Next part:

SMILES	cell number change [%]	AC50 [1]	AC50 [2]
CN1CCN(CC(O)COC(c2ccccc2)c2ccccc2)CC1 (configuration not stated)	-19		6.51 µM [rising, partial curve, poor fit]
Cc1cc(C)nc(-n2nc(C)cc2NC(=O)CNC2CCCCC2)n1	2.89		20.6 µM [rising, single point]
O=C(CSc1nnnn1-c1ccccc1)Nc1ccc(Cl)cc1	-8.86		1.3 µM [rising, partial curve]
COc1ccc(OC)c(NC(=O)c2ccc(CN3CCOCC3)cc2)c1	-3.78		0.082 µM [falling, single point]
CC(C)C(c1nnnn1C1CCCCC1)N1CCCc2ccccc21 (configuration not stated)	-33	32.6 µM [falling, single point]	23.1 µM [falling, single point]
Cc1ccccc1OCCCCc1c(C)n[nH]c1C	-45	11.6 µM [falling, partial curve]	10.3 µM [falling, partial curve, poor fit]
O=C(NN1C(=O)NC2(CCCCC2)C1=O)c1ccc(Cl)c(Cl)c1	-15.1		0.00411 µM [falling, full curve, poor fit]
CCOc1ccc2nc(SCC(=O)NCc3ccccc3)[nH]c2c1	-28.1		16.4 µM [falling, partial curve]
CN(CCOc1ccccc1)C(=S)Nc1ccc(OC(F)F)cc1	8.57	0.651 µM [rising, partial curve, poor fit]	6.51 µM [falling, single point]
Cc1ccnc(NC(=O)c2cc3c(=O)oc4ccc(C)cc4c3s2)c1	22.4		
COc1cccc(N2CCN(S(=O)(=O)c3cccc4cccnc34)CC2)c1	-14.4		0.103 µM [falling, full curve, poor fit]
COc1ccc(S(=O)(=O)N2CCCCC2)cc1NC(=O)Cc1sc(C)nc1-c1ccc(F)cc1	75	4.11 µM [rising, single point]	
CC(C)NC(=O)c1cccc(Cn2cc(Cl)cn2)c1	10.1		2.06 µM [falling, single point]
Cc1cccc(N=C(N2CCOCC2)P(=O)(N2CCOCC2)N2CCOCC2)c1	-106	25.9 µM [falling, partial curve]	18.4 µM [falling, partial curve]
CN(C)c1ccc(C2C=C(c3ccc(Cl)cc3OC(F)F)Nc3ncnn32)cc1 (configuration not stated)		0.731 µM [rising, partial curve]	0.517 µM [rising, partial curve]
Cc1ccc(N(C)C(=O)c2cc(S(=O)(=O)N3CCc4ccccc43)cn2C)cc1	1.15		0.651 µM [falling, single point]
O=C(NCc1n[nH]c(=S)n1Cc1ccccc1)c1ccccc1	56.3	20.6 µM [rising, single point]	
Cc1ccnc(NC(NC(=O)C(C)C)(C(F)(F)F)C(F)(F)F)c1	-9.07		0.116 µM [rising, full curve, poor fit]
CC1CCN(S(=O)(=O)N2CCCC(C(=O)NCc3ccc(F)cc3)C2)CC1 (configuration not stated)	-6.6		

SMILES	cell number change [%]	AC50 [1]	AC50 [2]
CN(C)S(=O)(=O)c1cccc(NC(=O)COC(=O)COc2ccccc2[N+](=O)[O-])c1	10.7		
O=C1NC2=C(C(=O)CCC2)C(c2ccc([N+](=O)[O-])cc2)N1 (configuration not stated)	20.6		7.31 µM [rising, partial curve]
CCOP(=O)(OCC)C(Nc1cccc([N+](=O)[O-])c1)c1ccccc1 (configuration not stated)			0.00461 µM [rising, full curve, poor fit]
CC(=O)c1ccc(S(=O)(=O)NCC(=O)Nc2nc3ccccc3[nH]2)cc1	-14.6		25.9 µM [rising, single point]
CCC(C)Sc1ccc(-c2nc3ccc(C)cn3c2NCc2ccccc2)cc1OC (configuration not stated)	-54.7	29.1 µM [falling, single point]	
CCCSc1ccc([C@@H]2[C@H]3C(=O)N(CC)C(=O)[C@H]3[C@]3(C(=O)OC)CCCCN23)cc1	-16.3		
CN(C)CCCn1c(-c2ccccc2)nc(=S)c2c1CCCC2	-22.5		23.1 µM [falling, single point]
Cc1ccc(C(=O)Oc2coc(CSc3nnc(NC(=O)c4cccs4)s3)cc2=O)cc1C	55.9	29.1 µM [rising, partial curve, poor fit]	14.6 µM [rising, single point]
CC(=O)c1cccc(NC(=O)C2CC(c3ccc(F)cc3)=NO2)c1 (configuration not stated)	-4.59		20.6 µM [rising, partial curve]
NC(=O)CC(NC(=O)Cc1cccc2ccccc12)c1ccc(NCCN2CCCC2)c([N+](=O)[O-])c1 (configuration not stated)	-6.15		2.91 µM [rising, single point]
COc1ccc(OC)c(C2C3=C(CCCC3=O)Nc3c2c(=O)n(C)c(=O)n3C)c1 (configuration not stated)	14.4		6.51 µM [falling, single point]
O=C(CN1CCC(c2nc3ccccc3[nH]2)CC1)Nc1ccc2c(c1)OCO2	7.01		0.146 µM [rising, full curve, poor fit]
Cc1ccc(S(=O)(=O)N2CCCC(C(=O)NC3=NCCS3)C2)cc1 (configuration not stated)	-74.8	29.1 µM [falling, single point]	
CCN(C(=O)CSc1nnc(-c2c[nH]c3ccccc23)n1C1CC1)C1CCS(=O)(=O)C1 (configuration not stated)	-34	2.06 µM [falling, partial curve]	2.06 µM [falling, partial curve]
O=C(N[C@@H](Cc1ccccc1)C(=O)OCc1ccccc1)c1nc[nH]c1C(=O)NCc1ccccc1	-14.2		6.51 µM [rising, single point]
CCOC(=O)c1ccc(-n2c(C)ccc2C)cc1	11.1		29.1 µM [rising, single point]
CN1CCN(C(=O)c2ccc3c(=O)n(Cc4ccc(Cl)cc4)c(=S)[nH]c3c2)CC1	-17.7		0.461 µM [falling, full curve, poor fit]
CC(C)C1CC(CCN2CCCCC2)(c2ccccc2)CCO1 (configuration not stated)	-53.1	8.2 µM [falling, partial curve, poor fit]	0.651 µM [falling, full curve, poor fit]

— PubChem BioAssay AID2685 (National Center for Advancing Translational Sciences (NCATS), 2010)
